Measurements taken from PMC11589570, “Critical assessment of LC3/GABARAP ligands used for degrader development and ligandability of LC3/GABARAP binding pockets” (Nature Communications, 2024).
Several values for one entry are separate records, joined by “and”; a condition that tells them apart may be missing. Equal entries are not always repeated. The source gives many values for each of these; only a part stands here.

System: RPE1 cells
Test: Cell growth assay (IncuCyte confluence over 72 h)
Assay type: cell-based
Description: Cell growth assay: Cell confluence (phase) from RPE1 (hTERT RPE-1, ATCC CLR_4000) or U2OS (ATCC, HTB-96) cell lines were monitored over time with the IncuCyte S3 (Sartiorius, Germany) in 384-well plates in 50 ul DMEM media, supplemented with 10% Fetal Bovine Serum (FBS) 1% penicillin/Streptomycin and incubated 24 h before treatment. Experiment was performed as described in Cano-Franco et al.. 50 μl of media containing either 2× final concentration of indicated compounds in or control compounds (final conc.: 0.1% DMSO, 250 nM Torin1, 200 ng/mL Bafilomycin) were added and images were taken every two hours over 72 h. Cell confluence is represented as % of area covered by cells. Each data point represents the average ratio or confluence obtained from three individual wells of the plate.

Q: `O=C1Nc2ccc(Br)cc2C1=Cc1cc(O)c(O)c(Br)c1` [compound 1] was tested. Which RPE1 cell growth (100 nM, 0 h, listed as AN1) did it give?
A: The RPE1 cell growth was 20 and 12 and 21.

Q: What about the RPE1 cell growth (100 nM, 2 h, listed as AN1) of the same molecule?
A: The RPE1 cell growth was 23 and 13 and 22.

Q: What about the RPE1 cell growth (100 nM, 4 h, listed as AN1) of the same molecule?
A: The RPE1 cell growth was 25 and 14 and 23.

Q: What about the RPE1 cell growth (100 nM, 6 h, listed as AN1) of the same molecule?
A: The RPE1 cell growth was 27 and 15 and 23.

Q: And the RPE1 cell growth (100 nM, 8 h, listed as AN1)?
A: The RPE1 cell growth was 28 and 15 and 25.

Q: What about the RPE1 cell growth (100 nM, 20 h, listed as AN1) of the same molecule?
A: Its RPE1 cell growth is 33.

Q: What about the RPE1 cell growth (100 nM, 22 h, listed as AN1) of the same molecule?
A: Its RPE1 cell growth is 45 and 24 and 35.

Q: And the RPE1 cell growth (100 nM, 26 h, listed as AN1)?
A: Its RPE1 cell growth is 53 and 28 and 38.

Q: And the RPE1 cell growth (100 nM, 28 h, listed as AN1)?
A: The RPE1 cell growth was 58 and 29 and 40.

Q: And the RPE1 cell growth (100 nM, 30 h, listed as AN1)?
A: Its RPE1 cell growth is 45 and 32 and 43.

Q: What about the RPE1 cell growth (100 nM, 32 h, listed as AN1) of the same molecule?
A: Its RPE1 cell growth is 67 and 35 and 47.

Q: And the RPE1 cell growth (100 nM, 34 h, listed as AN1)?
A: Its RPE1 cell growth is 72 and 38 and 50.

Q: What about the RPE1 cell growth (100 nM, 36 h, listed as AN1) of the same molecule?
A: Its RPE1 cell growth is 74 and 41 and 52.

Q: What about the RPE1 cell growth (100 nM, 38 h, listed as AN1) of the same molecule?
A: Its RPE1 cell growth is 78 and 44 and 56.

Q: And the RPE1 cell growth (100 nM, 40 h, listed as AN1)?
A: Its RPE1 cell growth is 57 and 46 and 60.

Q: And the RPE1 cell growth (100 nM, 44 h, listed as AN1)?
A: The RPE1 cell growth was 90 and 54 and 67.

Q: And the RPE1 cell growth (100 nM, 46 h, listed as AN1)?
A: The RPE1 cell growth was 93 and 57 and 70.

Q: What about the RPE1 cell growth (100 nM, 48 h, listed as AN1) of the same molecule?
A: The RPE1 cell growth was 95 and 61 and 75.

Q: And the RPE1 cell growth (100 nM, 50 h, listed as AN1)?
A: Its RPE1 cell growth is 97 and 66 and 79.

Q: What about the RPE1 cell growth (100 nM, 52 h, listed as AN1) of the same molecule?
A: The RPE1 cell growth was 66 and 72 and 83.

Q: And the RPE1 cell growth (100 nM, 54 h, listed as AN1)?
A: The RPE1 cell growth was 98 and 78 and 87.

Q: And the RPE1 cell growth (100 nM, 58 h, listed as AN1)?
A: The RPE1 cell growth was 99 and 85 and 93.

Q: What about the RPE1 cell growth (100 nM, 60 h, listed as AN1) of the same molecule?
A: The RPE1 cell growth was 100 and 91 and 95.

Q: And the RPE1 cell growth (100 nM, 62 h, listed as AN1)?
A: The RPE1 cell growth was 100 and 94 and 97.

Q: What about the RPE1 cell growth (100 nM, 64 h, listed as AN1) of the same molecule?
A: The RPE1 cell growth was 100 and 96 and 98.

Q: And the RPE1 cell growth (100 nM, 66 h, listed as AN1)?
A: Its RPE1 cell growth is 100 and 98 and 99.

Q: And the RPE1 cell growth (100 nM, 68 h, listed as AN1)?
A: The RPE1 cell growth was 100 and 99.

Q: And the RPE1 cell growth (100 nM, 70 h, listed as AN1)?
A: The RPE1 cell growth was 100 and 99.

Q: What about the RPE1 cell growth (100 nM, 72 h) of the same molecule?
A: The RPE1 cell growth was 100.

Q: What about the RPE1 cell growth (100 nM, time 20 h, listed as AN1) of the same molecule?
A: Its RPE1 cell growth is 49 and 26 and 29.

Q: What about the RPE1 cell growth (100 nM, time 22 h, listed as AN1) of the same molecule?
A: Its RPE1 cell growth is 52 and 28 and 30.

Q: What about the RPE1 cell growth (100 nM, time 24 h, listed as AN1) of the same molecule?
A: Its RPE1 cell growth is 58 and 31 and 33.

Q: What about the RPE1 cell growth (100 nM, time 26 h, listed as AN1) of the same molecule?
A: The RPE1 cell growth was 62 and 32 and 34.

Q: And the RPE1 cell growth (100 nM, time 28 h, listed as AN1)?
A: Its RPE1 cell growth is 65 and 36 and 37.

Q: And the RPE1 cell growth (100 nM, time 30 h, listed as AN1)?
A: Its RPE1 cell growth is 70 and 39.

Q: What about the RPE1 cell growth (100 nM, time 32 h, listed as AN1) of the same molecule?
A: The RPE1 cell growth was 74 and 43 and 44.

Q: And the RPE1 cell growth (100 nM, time 34 h, listed as AN1)?
A: The RPE1 cell growth was 78 and 45 and 49.

Q: What about the RPE1 cell growth (100 nM, time 36 h, listed as AN1) of the same molecule?
A: The RPE1 cell growth was 82 and 48 and 50.

Q: What about the RPE1 cell growth (100 nM, time 38 h, listed as AN1) of the same molecule?
A: Its RPE1 cell growth is 84 and 52.

Q: What about the RPE1 cell growth (100 nM, time 40 h, listed as AN1) of the same molecule?
A: The RPE1 cell growth was 88 and 54 and 58.

Q: What about the RPE1 cell growth (100 nM, time 42 h, listed as AN1) of the same molecule?
A: Its RPE1 cell growth is 89 and 58 and 61.

Q: What about the RPE1 cell growth (100 nM, time 44 h, listed as AN1) of the same molecule?
A: Its RPE1 cell growth is 93 and 63 and 66.

Q: And the RPE1 cell growth (100 nM, time 46 h, listed as AN1)?
A: Its RPE1 cell growth is 93 and 67 and 70.

Q: And the RPE1 cell growth (100 nM, time 48 h, listed as AN1)?
A: Its RPE1 cell growth is 95 and 71 and 74.

Q: And the RPE1 cell growth (100 nM, time 50 h, listed as AN1)?
A: The RPE1 cell growth was 96 and 77 and 76.

Q: And the RPE1 cell growth (100 nM, time 52 h, listed as AN1)?
A: The RPE1 cell growth was 97 and 81 and 82.

Q: And the RPE1 cell growth (100 nM, time 54 h, listed as AN1)?
A: The RPE1 cell growth was 98 and 85 and 87.

Q: And the RPE1 cell growth (100 nM, time 56 h, listed as AN1)?
A: Its RPE1 cell growth is 99 and 88.

Q: And the RPE1 cell growth (100 nM, time 58 h, listed as AN1)?
A: The RPE1 cell growth was 99 and 92 and 94.

Q: What about the RPE1 cell growth (100 nM, time 60 h, listed as AN1) of the same molecule?
A: Its RPE1 cell growth is 99 and 95.

Q: And the RPE1 cell growth (100 nM, time 62 h, listed as AN1)?
A: The RPE1 cell growth was 100 and 96 and 97.

Q: And the RPE1 cell growth (100 nM, time 64 h, listed as AN1)?
A: Its RPE1 cell growth is 100 and 98.

Q: What about the RPE1 cell growth (100 nM, time 66 h, listed as AN1) of the same molecule?
A: The RPE1 cell growth was 100 and 99.

Q: What about the RPE1 cell growth (100 nM, time 68 h, listed as AN1) of the same molecule?
A: The RPE1 cell growth was 100 and 99.

Q: What about the RPE1 cell growth (100 nM, time 70 h) of the same molecule?
A: Its RPE1 cell growth is 100.

Q: What about the RPE1 cell growth (100 nM, time 72 h) of the same molecule?
A: Its RPE1 cell growth is 100.

Q: What about the RPE1 cell growth (500 nM, 0 h, listed as AN1) of the same molecule?
A: Its RPE1 cell growth is 25 and 19 and 18.

Q: What about the RPE1 cell growth (500 nM, 2 h, listed as AN1) of the same molecule?
A: The RPE1 cell growth was 31 and 18 and 20.

Q: What about the RPE1 cell growth (500 nM, 4 h, listed as AN1) of the same molecule?
A: Its RPE1 cell growth is 33 and 20 and 22.

Q: What about the RPE1 cell growth (500 nM, 6 h, listed as AN1) of the same molecule?
A: The RPE1 cell growth was 35 and 20 and 22.

Q: What about the RPE1 cell growth (500 nM, 8 h, listed as AN1) of the same molecule?
A: The RPE1 cell growth was 38 and 21 and 23.

Q: And the RPE1 cell growth (500 nM, 20 h, listed as AN1)?
A: The RPE1 cell growth was 50 and 31 and 34.

Q: And the RPE1 cell growth (500 nM, 22 h, listed as AN1)?
A: Its RPE1 cell growth is 55 and 34 and 36.

Q: And the RPE1 cell growth (500 nM, 24 h, listed as AN1)?
A: Its RPE1 cell growth is 60 and 36 and 38.

Q: And the RPE1 cell growth (500 nM, 26 h, listed as AN1)?
A: The RPE1 cell growth was 62 and 39 and 42.

Q: And the RPE1 cell growth (500 nM, 28 h, listed as AN1)?
A: Its RPE1 cell growth is 67 and 41 and 43.

Q: What about the RPE1 cell growth (500 nM, 32 h, listed as AN1) of the same molecule?
A: Its RPE1 cell growth is 76 and 49 and 50.

Q: What about the RPE1 cell growth (500 nM, 34 h, listed as AN1) of the same molecule?
A: The RPE1 cell growth was 79 and 52 and 53.

Q: And the RPE1 cell growth (500 nM, 36 h, listed as AN1)?
A: Its RPE1 cell growth is 82 and 55 and 57.

Q: What about the RPE1 cell growth (500 nM, 38 h, listed as AN1) of the same molecule?
A: Its RPE1 cell growth is 85 and 60.

Q: And the RPE1 cell growth (500 nM, 42 h, listed as AN1)?
A: Its RPE1 cell growth is 91 and 67 and 63.

Q: What about the RPE1 cell growth (500 nM, 44 h, listed as AN1) of the same molecule?
A: The RPE1 cell growth was 94 and 73 and 74.

Q: What about the RPE1 cell growth (500 nM, 46 h, listed as AN1) of the same molecule?
A: Its RPE1 cell growth is 96 and 78.

Q: What about the RPE1 cell growth (500 nM, 48 h, listed as AN1) of the same molecule?
A: The RPE1 cell growth was 97 and 81 and 83.

Q: What about the RPE1 cell growth (500 nM, 50 h, listed as AN1) of the same molecule?
A: Its RPE1 cell growth is 98 and 86.

Q: And the RPE1 cell growth (500 nM, 54 h, listed as AN1)?
A: Its RPE1 cell growth is 99 and 94 and 92.

Q: And the RPE1 cell growth (500 nM, 56 h, listed as AN1)?
A: Its RPE1 cell growth is 100 and 94 and 91.

Q: What about the RPE1 cell growth (500 nM, 58 h, listed as AN1) of the same molecule?
A: The RPE1 cell growth was 100 and 96 and 97.

Q: And the RPE1 cell growth (500 nM, 60 h, listed as AN1)?
A: Its RPE1 cell growth is 100 and 98.

Q: And the RPE1 cell growth (500 nM, 62 h, listed as AN1)?
A: Its RPE1 cell growth is 100 and 99.

Q: And the RPE1 cell growth (500 nM, 64 h, listed as AN1)?
A: Its RPE1 cell growth is 100 and 99.

Q: What about the RPE1 cell growth (500 nM, 66 h) of the same molecule?
A: The RPE1 cell growth was 100.

Q: What about the RPE1 cell growth (500 nM, 68 h) of the same molecule?
A: Its RPE1 cell growth is 100.

Q: What about the RPE1 cell growth (500 nM, 70 h) of the same molecule?
A: The RPE1 cell growth was 100.

Q: And the RPE1 cell growth (500 nM, 72 h)?
A: The RPE1 cell growth was 100.

Q: What about the RPE1 cell growth (500 nM, time 20 h, listed as AN1) of the same molecule?
A: The RPE1 cell growth was 53 and 28 and 35.
